3 molecules from article PMC8648671 can be followed below.

Results are given in words; binding and its absence hold for the method and conditions named. Binding seen in cells or lysates may run through a third protein. Binding calls can cover weak binding; strength is not graded here. Where a sequence is shown, tags or fusion partners need not be part of it.

The target in experiment [1] is Beta-Pix (endogenous, SW480) (human (endogenous in SW480)). Description: co-IP; SW480 cells expressing Flag-Dyn2 treated with AuNP-IgG or AuNP-SH3; immunoprecipitation of βPix (anti-βPix-GBD by the legend, anti-βPix-SH3 by the text).
For experiment [2], the target named is Flag-βPix. Put plainly: co-IP; HEK293T transfected with Flag-βPix (or mutants) and Dyn2-GFP (or R834A); anti-Flag antibodies; also with 5 µM PP2 for 30 min, or with constitutively active or dominant-negative Src.
In experiment [3] the target is βPix-Myc. Put plainly: co-IP; HEK293T transfected with βPix-Myc or βPix-SH3 mutant-Myc and Flag-Dyn2; anti-Myc antibodies; IP buffer 50 mM HEPES pH 7.4, 150 mM NaCl, 0.5 % NP 40.

B1: Flag-Dyn2 (SW480) (protein, UniProt P39052 1-870)
chain: MGNRGMEELIPLVNKLQDAFSSIGQSCHLDLPQIAVVGGQSAGKSSVLENFVGRDFLPRGSGIVTRRPLILQLIFSKTEYAEFLHCKSKKFTDFDEVRQEIEAETDRVTGTNKGISPVPINLRVYSPHVLNLTLIDLPGITKVPVGDQPPDIEYQIKDMILQFISRESSLILAVTPANMDLANSDALKLAKEVDPQGLRTIGVITKLDLMDEGTDARDVLENKLLPLRRGYIGVVNRSQKDIEGRKDIRAALAAERKFFLSHPAYRHMADRMGTPHLQKTLNQQLTNHIRESLPTLRSKLQSQLLSLEKEVEEYKNFRPDDPTRKTKALLQMVQQFGVDFEKRIEGSGDQVDTLELSGGARINRIFHERFPFELVKMEFDEKDLRREISYAIKNIHGVRTGLFTPDLAFEAIVKKQVVKLKEPCLKCVDLVIQELISTVRQCTSKLSSYPRLREETERIVTTYIREREGRTKDQILLLIDIEQSYINTNHEDFIGFANAQQRSTQLNKKRAIPNQGEILVIRRGWLTINNISLMKGGSKEYWFVLTAESLSWYKDEEEKEKKYMLPLDNLKIRDVEKGFMSNKHVFAIFNTEQRNVYKDLRQIELACDSQEDVDSWKASFLRAGVYPEKDQAENEDGAQENTFSMDPQLERQVETIRNLVDSYVAIINKSIRDLMPKTIMHLMINNTKAFIHHELLAYLYSSADQSSLMEESAEQAQRRDDMLRMYHALKEALNIIGDISTSTVSTPVPPPVDDTWLQNTSSHSPTPQRRPVSSVHPPGRPPAVRGPTPGPPLIPMPVGATSSFSAPPIPSRPGPQNVFANNDPFSAPPQIPSRPARIPPGIPPGVPSRRAPAAPSRPTIIRPAEPSLLD
As for B1, the binding entry in experiment [1] is listed as “binds”.

B2: Dyn2-GFP (protein, UniProt P39052 1-870)
chain: B1 chain
B2: the binding result in experiment [2] is reported as “binds”.

B3: Flag-Dyn2 (HEK293T) (protein, UniProt P39052 1-870)
chain: B1 chain
For the molecule B3, the binding entry in experiment [3] is “binds”.
